Data published in the supplement of paper PMC10849652.
The list shows a part of the results.

Amino acid sequences for entries named in this document (tags omitted). A change or cut given only in a name is not applied to a line headed by its entry.
UniProt P42785: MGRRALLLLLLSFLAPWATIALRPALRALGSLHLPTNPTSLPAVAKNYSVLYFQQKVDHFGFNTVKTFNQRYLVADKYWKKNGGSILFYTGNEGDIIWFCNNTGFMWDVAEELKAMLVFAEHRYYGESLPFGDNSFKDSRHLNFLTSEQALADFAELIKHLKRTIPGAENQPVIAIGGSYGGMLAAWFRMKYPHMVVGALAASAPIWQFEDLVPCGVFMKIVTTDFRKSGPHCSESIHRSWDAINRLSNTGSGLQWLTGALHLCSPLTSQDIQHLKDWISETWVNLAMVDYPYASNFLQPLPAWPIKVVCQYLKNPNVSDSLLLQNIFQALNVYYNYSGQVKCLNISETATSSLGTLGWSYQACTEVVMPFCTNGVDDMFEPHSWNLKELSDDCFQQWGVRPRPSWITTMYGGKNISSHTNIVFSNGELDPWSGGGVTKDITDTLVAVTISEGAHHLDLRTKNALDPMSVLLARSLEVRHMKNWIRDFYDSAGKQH
UniProt Q13162: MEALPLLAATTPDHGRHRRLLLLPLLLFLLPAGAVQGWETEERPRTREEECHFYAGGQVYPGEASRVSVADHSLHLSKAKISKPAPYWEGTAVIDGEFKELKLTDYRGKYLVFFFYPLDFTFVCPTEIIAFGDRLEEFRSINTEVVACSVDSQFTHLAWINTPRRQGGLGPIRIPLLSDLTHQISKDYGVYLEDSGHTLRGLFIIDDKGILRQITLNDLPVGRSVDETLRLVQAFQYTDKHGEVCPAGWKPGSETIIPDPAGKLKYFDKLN
UniProt Q04759: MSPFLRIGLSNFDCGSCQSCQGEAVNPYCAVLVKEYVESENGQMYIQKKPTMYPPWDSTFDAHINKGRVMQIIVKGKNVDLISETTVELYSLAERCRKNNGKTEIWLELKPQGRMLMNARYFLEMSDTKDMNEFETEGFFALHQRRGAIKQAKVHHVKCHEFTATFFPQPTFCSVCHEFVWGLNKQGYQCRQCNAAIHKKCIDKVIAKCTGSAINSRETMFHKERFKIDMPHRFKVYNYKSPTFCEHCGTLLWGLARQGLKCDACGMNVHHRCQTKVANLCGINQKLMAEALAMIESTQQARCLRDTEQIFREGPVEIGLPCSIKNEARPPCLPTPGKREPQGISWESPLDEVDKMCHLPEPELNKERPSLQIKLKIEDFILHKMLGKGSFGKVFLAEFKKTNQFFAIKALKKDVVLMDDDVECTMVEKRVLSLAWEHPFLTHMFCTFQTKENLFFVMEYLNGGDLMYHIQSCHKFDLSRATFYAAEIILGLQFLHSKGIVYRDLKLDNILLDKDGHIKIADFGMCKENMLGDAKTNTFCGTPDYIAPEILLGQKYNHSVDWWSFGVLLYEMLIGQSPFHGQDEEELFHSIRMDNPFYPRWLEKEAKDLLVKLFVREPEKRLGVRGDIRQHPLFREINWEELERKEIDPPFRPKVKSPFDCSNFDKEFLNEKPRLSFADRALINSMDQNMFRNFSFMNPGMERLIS
UniProt Q86UA1: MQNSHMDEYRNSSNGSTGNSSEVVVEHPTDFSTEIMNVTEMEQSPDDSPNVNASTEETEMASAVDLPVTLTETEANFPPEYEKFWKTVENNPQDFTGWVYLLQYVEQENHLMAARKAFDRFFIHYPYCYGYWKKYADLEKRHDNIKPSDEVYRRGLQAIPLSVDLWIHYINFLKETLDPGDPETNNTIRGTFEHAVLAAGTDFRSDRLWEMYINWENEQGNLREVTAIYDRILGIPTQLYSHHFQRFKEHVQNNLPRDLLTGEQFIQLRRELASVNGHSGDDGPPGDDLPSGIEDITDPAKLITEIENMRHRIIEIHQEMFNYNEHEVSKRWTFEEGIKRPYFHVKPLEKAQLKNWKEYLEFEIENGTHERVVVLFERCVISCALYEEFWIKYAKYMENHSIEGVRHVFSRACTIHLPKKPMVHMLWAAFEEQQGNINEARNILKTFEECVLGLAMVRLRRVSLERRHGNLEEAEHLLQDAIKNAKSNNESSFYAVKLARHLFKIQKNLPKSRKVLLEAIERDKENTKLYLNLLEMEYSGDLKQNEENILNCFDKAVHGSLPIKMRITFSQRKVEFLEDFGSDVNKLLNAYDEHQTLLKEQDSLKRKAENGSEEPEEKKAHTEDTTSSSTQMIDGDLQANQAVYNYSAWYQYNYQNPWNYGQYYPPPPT
UniProt Q96QC0: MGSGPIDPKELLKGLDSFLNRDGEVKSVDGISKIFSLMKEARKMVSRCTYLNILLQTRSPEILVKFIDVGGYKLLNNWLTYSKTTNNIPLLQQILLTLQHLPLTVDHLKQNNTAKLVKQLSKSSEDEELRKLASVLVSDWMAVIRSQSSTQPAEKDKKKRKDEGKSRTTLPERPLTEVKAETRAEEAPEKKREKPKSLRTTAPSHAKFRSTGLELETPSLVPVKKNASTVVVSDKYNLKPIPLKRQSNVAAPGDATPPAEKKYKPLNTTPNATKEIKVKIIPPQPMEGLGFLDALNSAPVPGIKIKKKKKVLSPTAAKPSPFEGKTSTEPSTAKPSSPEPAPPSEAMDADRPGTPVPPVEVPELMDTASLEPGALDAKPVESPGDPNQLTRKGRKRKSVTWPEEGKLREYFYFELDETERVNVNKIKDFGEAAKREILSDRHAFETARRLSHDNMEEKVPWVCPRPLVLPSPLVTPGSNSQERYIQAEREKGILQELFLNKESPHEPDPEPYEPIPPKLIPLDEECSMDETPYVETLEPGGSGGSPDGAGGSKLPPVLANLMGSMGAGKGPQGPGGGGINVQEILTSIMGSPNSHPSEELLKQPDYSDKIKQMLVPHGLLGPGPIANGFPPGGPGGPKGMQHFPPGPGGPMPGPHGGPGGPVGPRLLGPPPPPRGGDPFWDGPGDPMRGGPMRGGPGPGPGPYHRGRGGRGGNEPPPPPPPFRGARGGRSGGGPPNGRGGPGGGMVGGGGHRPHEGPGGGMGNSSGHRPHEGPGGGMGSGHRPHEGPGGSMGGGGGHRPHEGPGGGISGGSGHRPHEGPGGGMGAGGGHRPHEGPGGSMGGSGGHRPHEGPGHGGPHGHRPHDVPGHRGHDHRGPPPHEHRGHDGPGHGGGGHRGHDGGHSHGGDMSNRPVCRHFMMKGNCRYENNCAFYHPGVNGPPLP
UniProt Q9H875: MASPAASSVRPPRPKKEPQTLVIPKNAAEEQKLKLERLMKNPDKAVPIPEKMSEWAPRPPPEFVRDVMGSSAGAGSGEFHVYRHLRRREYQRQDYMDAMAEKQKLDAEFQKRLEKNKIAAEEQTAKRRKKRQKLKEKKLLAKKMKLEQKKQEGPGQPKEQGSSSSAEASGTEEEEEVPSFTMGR
UniProt Q99633: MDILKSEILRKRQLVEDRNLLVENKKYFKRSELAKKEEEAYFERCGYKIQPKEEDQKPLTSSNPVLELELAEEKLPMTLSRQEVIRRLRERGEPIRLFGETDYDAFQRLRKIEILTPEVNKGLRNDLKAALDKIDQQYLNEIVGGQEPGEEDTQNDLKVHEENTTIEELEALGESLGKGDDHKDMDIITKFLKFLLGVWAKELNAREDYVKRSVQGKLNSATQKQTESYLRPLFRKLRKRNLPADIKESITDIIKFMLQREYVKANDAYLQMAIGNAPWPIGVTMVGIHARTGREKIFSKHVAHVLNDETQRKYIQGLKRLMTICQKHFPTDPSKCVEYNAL
UniProt O14744, whole entry, looked up: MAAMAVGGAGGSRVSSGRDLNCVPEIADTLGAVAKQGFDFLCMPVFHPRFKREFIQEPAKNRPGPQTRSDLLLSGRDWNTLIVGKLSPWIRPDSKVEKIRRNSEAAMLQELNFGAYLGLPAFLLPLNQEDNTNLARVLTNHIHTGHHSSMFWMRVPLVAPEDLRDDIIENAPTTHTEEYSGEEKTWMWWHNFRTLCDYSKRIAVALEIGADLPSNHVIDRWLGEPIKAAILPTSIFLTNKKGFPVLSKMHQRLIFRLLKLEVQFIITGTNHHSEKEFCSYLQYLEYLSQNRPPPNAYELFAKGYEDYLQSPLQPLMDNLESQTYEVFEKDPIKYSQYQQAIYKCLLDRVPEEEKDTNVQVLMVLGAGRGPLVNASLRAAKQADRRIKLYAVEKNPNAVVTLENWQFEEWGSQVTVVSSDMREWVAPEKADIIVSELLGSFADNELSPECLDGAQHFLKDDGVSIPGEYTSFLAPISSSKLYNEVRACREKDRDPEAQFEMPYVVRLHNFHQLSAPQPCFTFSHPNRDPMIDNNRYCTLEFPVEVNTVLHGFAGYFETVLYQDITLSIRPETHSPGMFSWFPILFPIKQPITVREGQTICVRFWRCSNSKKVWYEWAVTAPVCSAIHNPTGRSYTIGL
UniProt O43447: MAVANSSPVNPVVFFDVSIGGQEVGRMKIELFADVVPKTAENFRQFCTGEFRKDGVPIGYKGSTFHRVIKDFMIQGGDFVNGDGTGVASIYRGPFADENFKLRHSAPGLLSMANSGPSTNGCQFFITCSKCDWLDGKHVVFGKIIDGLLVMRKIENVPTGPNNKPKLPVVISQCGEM
UniProt P49643: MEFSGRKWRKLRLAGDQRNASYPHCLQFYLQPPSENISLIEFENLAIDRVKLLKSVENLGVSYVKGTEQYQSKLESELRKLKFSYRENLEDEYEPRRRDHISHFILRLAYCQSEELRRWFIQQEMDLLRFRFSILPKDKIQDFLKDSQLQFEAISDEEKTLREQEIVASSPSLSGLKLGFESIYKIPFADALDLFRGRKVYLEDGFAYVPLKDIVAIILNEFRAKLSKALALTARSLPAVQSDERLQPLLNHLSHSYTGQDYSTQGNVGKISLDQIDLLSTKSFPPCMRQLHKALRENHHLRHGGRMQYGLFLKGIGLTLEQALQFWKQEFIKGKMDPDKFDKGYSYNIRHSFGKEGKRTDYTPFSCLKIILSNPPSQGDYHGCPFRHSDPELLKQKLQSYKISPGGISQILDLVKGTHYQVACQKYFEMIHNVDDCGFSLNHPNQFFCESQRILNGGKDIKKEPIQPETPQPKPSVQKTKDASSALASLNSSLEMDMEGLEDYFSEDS
UniProt Q9H2H8: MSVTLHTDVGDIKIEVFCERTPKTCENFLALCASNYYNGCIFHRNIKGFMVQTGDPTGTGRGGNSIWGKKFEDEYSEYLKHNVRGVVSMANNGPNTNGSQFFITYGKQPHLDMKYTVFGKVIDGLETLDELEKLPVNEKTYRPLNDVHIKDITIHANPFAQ
UniProt Q96LA8, whole entry, looked up: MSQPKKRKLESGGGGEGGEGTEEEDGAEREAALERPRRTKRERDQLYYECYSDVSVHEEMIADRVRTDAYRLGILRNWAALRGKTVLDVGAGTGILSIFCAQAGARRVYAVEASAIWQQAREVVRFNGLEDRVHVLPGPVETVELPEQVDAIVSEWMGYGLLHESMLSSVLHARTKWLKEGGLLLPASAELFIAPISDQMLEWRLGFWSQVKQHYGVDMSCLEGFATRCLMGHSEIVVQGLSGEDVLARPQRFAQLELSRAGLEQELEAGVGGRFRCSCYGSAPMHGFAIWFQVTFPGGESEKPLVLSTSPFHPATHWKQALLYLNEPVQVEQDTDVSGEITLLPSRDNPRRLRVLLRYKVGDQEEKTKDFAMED
UniProt P50897: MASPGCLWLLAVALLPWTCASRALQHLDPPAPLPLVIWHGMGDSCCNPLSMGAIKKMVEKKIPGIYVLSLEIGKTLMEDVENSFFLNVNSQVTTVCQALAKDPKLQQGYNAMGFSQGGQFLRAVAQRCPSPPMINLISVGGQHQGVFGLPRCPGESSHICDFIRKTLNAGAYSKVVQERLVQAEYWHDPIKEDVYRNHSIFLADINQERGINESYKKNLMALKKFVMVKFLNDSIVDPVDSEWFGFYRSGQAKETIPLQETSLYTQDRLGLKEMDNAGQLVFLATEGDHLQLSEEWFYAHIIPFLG
UniProt P78395, whole entry, looked up: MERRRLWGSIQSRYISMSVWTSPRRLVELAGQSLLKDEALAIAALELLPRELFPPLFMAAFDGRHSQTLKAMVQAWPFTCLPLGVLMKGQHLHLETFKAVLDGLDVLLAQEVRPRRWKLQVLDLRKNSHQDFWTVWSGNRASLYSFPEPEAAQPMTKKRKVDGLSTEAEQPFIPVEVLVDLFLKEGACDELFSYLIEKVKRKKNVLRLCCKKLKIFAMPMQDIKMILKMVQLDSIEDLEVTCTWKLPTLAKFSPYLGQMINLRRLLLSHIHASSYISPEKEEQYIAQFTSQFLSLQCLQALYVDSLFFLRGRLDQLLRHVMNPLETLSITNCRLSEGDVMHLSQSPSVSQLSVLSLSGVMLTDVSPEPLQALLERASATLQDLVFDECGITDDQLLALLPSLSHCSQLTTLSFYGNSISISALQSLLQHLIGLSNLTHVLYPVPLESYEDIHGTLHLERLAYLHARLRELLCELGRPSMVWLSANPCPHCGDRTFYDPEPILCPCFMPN
UniProt P63098, whole entry, looked up: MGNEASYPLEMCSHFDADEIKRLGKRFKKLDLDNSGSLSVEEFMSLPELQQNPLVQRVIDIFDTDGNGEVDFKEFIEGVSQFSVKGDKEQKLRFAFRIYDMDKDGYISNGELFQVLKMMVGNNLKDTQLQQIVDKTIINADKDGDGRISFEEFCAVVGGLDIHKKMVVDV

Legend:
Assay in all cases: log2 fold change, soluble protein after heating vs DMSO (PISA); higher = thermal stabilisation; K562 lysate, 10 uM; active = over 0.2 and 3.5 SD of the protein, either way, in both replicates (recomputed)
[1] = compound: CCCS(=O)(=O)Nc1ccc(F)c(C(=O)c2c[nH]c3ncc(-c4ccc(Cl)cc4)cc23)c1F [vemurafenib]
Method in brief: (§1)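 Soluble protein was defined as the supernatant remaining after 21,000xg for 90 min, following pooling of heated aliquots and adjustment to 0.5% NP-40 at 4°C. Before that, crude K562 extract at 1 mg/mL protein in PBS pH 7.4 with 1 mM MgCl2 was treated with 10 μM compound for 30 min and heated for 3 min across 48°C-58°C. Quantification used TMTpro 16plex LC-MS/MS with channel sums equalised, and values are log-two fold changes in thermal stability relative to solvent controls from duplicates.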

[2] = compound: CCCS(=O)(=O)Nc1ccc(F)c(C(=O)c2c[nH]c3ncc(Cl)cc23)c1F
Method in brief: as §1

[3] = compound: CCN(CCCOc1ccc2c(Nc3cc(CC(=O)Nc4cccc(F)c4)[nH]n3)ncnc2c1)CCOP(=O)(O)O [barasertib]
Method in brief: as §1

[4] = compound: CC[C@@H]1C(=O)N(C)c2cnc(Nc3ccc(C(=O)NC4CCN(C)CC4)cc3OC)nc2N1C1CCCC1
Method in brief: as §1

[5] = compound: CC[C@@H]1C(=O)N(C)c2cnc(Nc3ccc(C(=O)N[C@H]4CC[C@H](N5CCN(CC6CC6)CC5)CC4)cc3OC)nc2N1C(C)C [volasertib]
Method in brief: as §1

[6] = compound: CCn1c(C(=O)N(C2CC2)C2CC2)cc2c3c(ncn3C)c(Nc3cc(C)n(C)n3)nc21
Method in brief: as §1

[7] = compound: CCn1cc(-c2ccnc3[nH]c(-c4cccc(CN(C)C)c4)cc23)c(-c2ccc(NC(=O)N(C)C)cc2)n1
Method in brief: as §1

[8] = compound: CN1CCC(CNc2ccc3ncc(-c4cccc(OC(F)(F)F)c4)n3n2)CC1
Method in brief: as §1

[9] = compound: CN1CCN(CCOc2cc(OC3CCOCC3)c3c(Nc4c(Cl)ccc5c4OCO5)ncnc3c2)CC1 [saracatinib]
Method in brief: as §1

[10] = compound: CN1CCN(c2nc(C3=C(c4c[nH]c5ccccc45)C(=O)NC3=O)c3ccccc3n2)CC1 [sotrastaurin]
Method in brief: as §1

Row | Target | log2 fold change [1] | log2 fold change [2] | log2 fold change [3] | log2 fold change [4] | log2 fold change [5] | log2 fold change [6] | log2 fold change [7] | log2 fold change [8] | log2 fold change [9] | log2 fold change [10]
1 | PRKCD (UniProt Q05655) | inactive: -0.006 | inactive: -0.118 | inactive: 0.057 | inactive: 0.008 | inactive: -0.041 | inactive: -0.014 | inactive: 0.012 | inactive: 0.021 | inactive: -0.005 | inactive: 0.058
2 | PRDM10 isoform 6 (UniProt Q9NQV6) | inactive: 0.008 | inactive: 0.111 | inactive: 0.111 | inactive: 0.02 | inactive: 0.074 | inactive: 0.09 | – | – | – | –
3 | PRCP (UniProt P42785) | inactive: -0.014 | inactive: -0.005 | inactive: -0.006 | inactive: -0.046 | inactive: -0.074 | inactive: -0.047 | inactive: -0.067 | inactive: 0.042 | inactive: -0.013 | inactive: 0.041
4 | PRDX4 (UniProt Q13162) | inactive: 0.017 | inactive: -0.001 | inactive: 0.005 | inactive: 0.018 | inactive: 0.015 | inactive: -0.018 | inactive: -0.108 | inactive: 0.083 | inactive: 0.025 | inactive: 0.031
5 | PPP6R1 (UniProt Q9UPN7) | inactive: -0.012 | inactive: -0.002 | inactive: 0.005 | inactive: 0.018 | inactive: -0.01 | inactive: 0.011 | inactive: 0.001 | inactive: 0.003 | inactive: -0.013 | inactive: 0.008
6 | PPM1E (UniProt Q8WY54) | inactive: 0.029 | inactive: -0.003 | inactive: 0.015 | inactive: 0.061 | inactive: 0.01 | inactive: -0.002 | inactive: -0.071 | inactive: 0.083 | inactive: 0.039 | inactive: 0.031
7 | PPP4R2 (UniProt Q9NY27) | inactive: -0.033 | inactive: 0.026 | inactive: -0.041 | inactive: 0.057 | inactive: -0.014 | inactive: -0.042 | inactive: 0.21 | inactive: 0.028 | inactive: -0.007 | inactive: 0.006
8 | PRKAG1 (UniProt P54619) | inactive: -0.014 | inactive: 0.014 | inactive: -0.002 | inactive: -0.026 | inactive: -0.06 | inactive: 0.009 | inactive: 0.043 | inactive: 0.076 | inactive: -0.022 | inactive: 0.106
9 | PRKCQ (UniProt Q04759) | inactive: -0.025 | inactive: -0.003 | inactive: -0.003 | inactive: -0.023 | inactive: -0.043 | inactive: -0.001 | inactive: 0.055 | inactive: -0.006 | inactive: -0.046 | inactive: -0.012
10 | PRPF39 (UniProt Q86UA1) | inactive: -0.015 | inactive: -0.006 | inactive: 0.024 | inactive: -0.064 | inactive: -0.084 | inactive: 0.034 | inactive: -0.051 | inactive: 0.01 | inactive: 0.004 | inactive: 0.01
11 | PPP1R10 (UniProt Q96QC0) | inactive: 0.027 | inactive: 0.007 | inactive: 0.043 | inactive: 0.111 | inactive: 0.007 | inactive: 0.006 | inactive: 0.017 | inactive: 0.004 | inactive: 0.032 | inactive: -0.007
12 | PRKRIP1 (UniProt Q9H875) | inactive: -0.014 | inactive: 0.025 | inactive: -0.014 | inactive: 0.007 | inactive: 0.021 | inactive: 0.016 | inactive: -0.008 | inactive: -0.019 | inactive: -0.023 | inactive: -0.004
13 | PRPF18 (UniProt Q99633) | inactive: -0.002 | inactive: -0.009 | inactive: 0.032 | inactive: 0.016 | inactive: -0.026 | inactive: 0.031 | inactive: -0.015 | inactive: -0.024 | inactive: 0.052 | inactive: -0.018
14 | PRKRA (UniProt O75569) | inactive: -0.012 | inactive: 0.031 | inactive: -0.042 | inactive: -0.082 | inactive: -0.052 | inactive: 0.041 | inactive: 0 | inactive: -0.016 | inactive: 0.03 | inactive: 0.009
15 | PRMT5 (UniProt O14744) | inactive: 0.006 | inactive: -0.008 | inactive: -0.007 | inactive: 0.02 | inactive: -0.007 | inactive: -0.009 | inactive: -0.067 | inactive: 0.017 | inactive: -0.032 | inactive: 0.015
16 | PPIH (UniProt O43447) | inactive: -0.013 | inactive: -0.002 | inactive: 0.042 | inactive: -0.021 | inactive: -0.018 | inactive: 0.008 | inactive: 0 | inactive: 0.016 | inactive: -0.003 | inactive: 0.02
17 | PPP6R2 isoform 5 (UniProt O75170) | inactive: 0.015 | inactive: 0.013 | inactive: -0.048 | inactive: 0.055 | inactive: -0.049 | inactive: 0.076 | inactive: -0.07 | inactive: -0.02 | inactive: 0.014 | inactive: 0.036
18 | PRKAR1A (UniProt P10644) | inactive: 0.007 | inactive: 0.027 | inactive: 0.034 | inactive: -0.011 | inactive: -0.017 | inactive: 0.049 | inactive: 0.073 | inactive: -0.084 | inactive: -0.01 | inactive: -0.025
19 | PRIM2 (UniProt P49643) | inactive: 0.025 | inactive: 0.04 | inactive: -0.005 | inactive: -0.034 | inactive: -0.048 | inactive: 0.019 | inactive: -0.027 | inactive: -0.046 | inactive: -0.03 | inactive: 0.02
20 | PRKD2 isoform 3 (UniProt Q9BZL6) | inactive: 0.041 | inactive: -0.048 | inactive: 0.034 | active: -0.358 | inactive: -0.131 | inactive: 0.097 | inactive: 0.038 | inactive: -0.07 | inactive: 0 | inactive: 0.085
21 | PRIM1 (UniProt P49642) | inactive: -0.036 | inactive: 0.022 | inactive: 0.031 | inactive: -0.089 | inactive: -0.069 | inactive: 0.062 | inactive: -0.008 | inactive: -0.029 | inactive: -0.002 | inactive: 0.007
22 | PPIL3 (UniProt Q9H2H8) | inactive: 0.048 | inactive: -0.017 | inactive: 0.099 | inactive: -0.004 | inactive: -0.007 | inactive: 0.027 | inactive: 0.067 | inactive: 0.021 | inactive: 0.004 | inactive: -0.03
23 | PPIL2 (UniProt Q13356) | inactive: 0.012 | inactive: 0.015 | inactive: 0.035 | inactive: -0.013 | inactive: -0.06 | inactive: 0 | inactive: -0.023 | inactive: 0.016 | inactive: -0.032 | inactive: 0.024
24 | PPP1R2 (UniProt P41236) | inactive: 0.008 | inactive: 0.01 | inactive: -0.038 | inactive: 0.049 | inactive: 0.018 | inactive: -0.001 | inactive: -0.022 | inactive: 0.046 | inactive: -0.025 | inactive: 0.022
25 | PRMT6 (UniProt Q96LA8) | inactive: -0.051 | inactive: 0.017 | inactive: 0.008 | inactive: -0.065 | inactive: 0.007 | inactive: 0.054 | inactive: 0.075 | inactive: -0.055 | inactive: -0.005 | inactive: 0.045
26 | PRORP (UniProt O15091) | inactive: 0.012 | inactive: 0.092 | inactive: 0.103 | inactive: -0.109 | inactive: -0.218 | inactive: 0.205 | inactive: 0.097 | inactive: -0.24 | inactive: -0.026 | inactive: 0.059
27 | PPT1 (UniProt P50897) | inactive: -0.001 | inactive: 0.015 | inactive: 0.02 | inactive: -0.084 | inactive: -0.06 | inactive: 0.011 | inactive: 0.055 | inactive: -0.06 | inactive: 0.009 | inactive: 0.025
28 | PRAME (UniProt P78395) | inactive: 0.028 | inactive: -0.012 | inactive: 0.003 | inactive: -0.086 | inactive: -0.009 | inactive: 0.017 | inactive: -0.058 | inactive: 0.011 | inactive: 0 | inactive: 0.018
29 | PPP2R2A isoform 2 (UniProt P63151) | inactive: 0.033 | inactive: -0.003 | inactive: 0 | inactive: 0.009 | inactive: 0.02 | inactive: -0.051 | inactive: -0.064 | inactive: 0.059 | inactive: 0.002 | inactive: 0.005
30 | PPP3R1 (UniProt P63098) | inactive: -0.009 | inactive: -0.011 | inactive: 0.115 | inactive: 0.007 | inactive: 0.04 | inactive: 0.029 | inactive: 0.007 | inactive: -0.05 | inactive: -0.034 | inactive: -0.052

From no. 23 to 30, copied from above:
Row | Target | log2 fold change [1] | log2 fold change [2] | log2 fold change [3] | log2 fold change [4] | log2 fold change [5] | log2 fold change [6] | log2 fold change [7] | log2 fold change [8] | log2 fold change [9] | log2 fold change [10]
23 | PPIL2 (UniProt Q13356) | inactive: 0.012 | inactive: 0.015 | inactive: 0.035 | inactive: -0.013 | inactive: -0.06 | inactive: 0 | inactive: -0.023 | inactive: 0.016 | inactive: -0.032 | inactive: 0.024
24 | PPP1R2 (UniProt P41236) | inactive: 0.008 | inactive: 0.01 | inactive: -0.038 | inactive: 0.049 | inactive: 0.018 | inactive: -0.001 | inactive: -0.022 | inactive: 0.046 | inactive: -0.025 | inactive: 0.022
25 | PRMT6 (UniProt Q96LA8) | inactive: -0.051 | inactive: 0.017 | inactive: 0.008 | inactive: -0.065 | inactive: 0.007 | inactive: 0.054 | inactive: 0.075 | inactive: -0.055 | inactive: -0.005 | inactive: 0.045
26 | PRORP (UniProt O15091) | inactive: 0.012 | inactive: 0.092 | inactive: 0.103 | inactive: -0.109 | inactive: -0.218 | inactive: 0.205 | inactive: 0.097 | inactive: -0.24 | inactive: -0.026 | inactive: 0.059
27 | PPT1 (UniProt P50897) | inactive: -0.001 | inactive: 0.015 | inactive: 0.02 | inactive: -0.084 | inactive: -0.06 | inactive: 0.011 | inactive: 0.055 | inactive: -0.06 | inactive: 0.009 | inactive: 0.025
28 | PRAME (UniProt P78395) | inactive: 0.028 | inactive: -0.012 | inactive: 0.003 | inactive: -0.086 | inactive: -0.009 | inactive: 0.017 | inactive: -0.058 | inactive: 0.011 | inactive: 0 | inactive: 0.018
29 | PPP2R2A isoform 2 (UniProt P63151) | inactive: 0.033 | inactive: -0.003 | inactive: 0 | inactive: 0.009 | inactive: 0.02 | inactive: -0.051 | inactive: -0.064 | inactive: 0.059 | inactive: 0.002 | inactive: 0.005
30 | PPP3R1 (UniProt P63098) | inactive: -0.009 | inactive: -0.011 | inactive: 0.115 | inactive: 0.007 | inactive: 0.04 | inactive: 0.029 | inactive: 0.007 | inactive: -0.05 | inactive: -0.034 | inactive: -0.052
